No constants are given. Whether binding was seen depends on the method and setting. Binding seen in cells or lysates may run through a third protein. Some binding calls cover weakened binding; strength is not graded here.
Key:
[1] = molecular target: p300 histone acetyltransferase, endogenous in mouse heart (mouse (endogenous in mouse heart)) (UniProt B2RWS6); assay: co-IP; reciprocal immunoprecipitation of p300 and GATA4 from nuclear lysates of wild type and Bnip3-TG mouse hearts, western blot
[2] = molecular target: p300 histone acetyltransferase, endogenous in mouse heart (mouse (endogenous in mouse heart)) (UniProt B2RWS6); assay: co-IP; p300 immunoprecipitated from hearts of wild type, Bnip3-TG, and Bnip3-TG mice treated with vehicle or curcumin; western blot for GATA4
[3] = molecular target: Bnip3 in mouse heart (endogenous in wild type, overexpressed from the α-MHC promoter transgene in Bnip3-TG) (not stated (transgene cDNA); mouse (endogenous in wild type mouse heart)) (UniProt O55003); assay: co-IP; reciprocal Bnip3 and Rheb immunoprecipitation from myocardial lysates of Bnip3-TG and wild type mice, western blot

Amino acid sequences for entries named in this document (tags omitted).
UniProt B2RWS6: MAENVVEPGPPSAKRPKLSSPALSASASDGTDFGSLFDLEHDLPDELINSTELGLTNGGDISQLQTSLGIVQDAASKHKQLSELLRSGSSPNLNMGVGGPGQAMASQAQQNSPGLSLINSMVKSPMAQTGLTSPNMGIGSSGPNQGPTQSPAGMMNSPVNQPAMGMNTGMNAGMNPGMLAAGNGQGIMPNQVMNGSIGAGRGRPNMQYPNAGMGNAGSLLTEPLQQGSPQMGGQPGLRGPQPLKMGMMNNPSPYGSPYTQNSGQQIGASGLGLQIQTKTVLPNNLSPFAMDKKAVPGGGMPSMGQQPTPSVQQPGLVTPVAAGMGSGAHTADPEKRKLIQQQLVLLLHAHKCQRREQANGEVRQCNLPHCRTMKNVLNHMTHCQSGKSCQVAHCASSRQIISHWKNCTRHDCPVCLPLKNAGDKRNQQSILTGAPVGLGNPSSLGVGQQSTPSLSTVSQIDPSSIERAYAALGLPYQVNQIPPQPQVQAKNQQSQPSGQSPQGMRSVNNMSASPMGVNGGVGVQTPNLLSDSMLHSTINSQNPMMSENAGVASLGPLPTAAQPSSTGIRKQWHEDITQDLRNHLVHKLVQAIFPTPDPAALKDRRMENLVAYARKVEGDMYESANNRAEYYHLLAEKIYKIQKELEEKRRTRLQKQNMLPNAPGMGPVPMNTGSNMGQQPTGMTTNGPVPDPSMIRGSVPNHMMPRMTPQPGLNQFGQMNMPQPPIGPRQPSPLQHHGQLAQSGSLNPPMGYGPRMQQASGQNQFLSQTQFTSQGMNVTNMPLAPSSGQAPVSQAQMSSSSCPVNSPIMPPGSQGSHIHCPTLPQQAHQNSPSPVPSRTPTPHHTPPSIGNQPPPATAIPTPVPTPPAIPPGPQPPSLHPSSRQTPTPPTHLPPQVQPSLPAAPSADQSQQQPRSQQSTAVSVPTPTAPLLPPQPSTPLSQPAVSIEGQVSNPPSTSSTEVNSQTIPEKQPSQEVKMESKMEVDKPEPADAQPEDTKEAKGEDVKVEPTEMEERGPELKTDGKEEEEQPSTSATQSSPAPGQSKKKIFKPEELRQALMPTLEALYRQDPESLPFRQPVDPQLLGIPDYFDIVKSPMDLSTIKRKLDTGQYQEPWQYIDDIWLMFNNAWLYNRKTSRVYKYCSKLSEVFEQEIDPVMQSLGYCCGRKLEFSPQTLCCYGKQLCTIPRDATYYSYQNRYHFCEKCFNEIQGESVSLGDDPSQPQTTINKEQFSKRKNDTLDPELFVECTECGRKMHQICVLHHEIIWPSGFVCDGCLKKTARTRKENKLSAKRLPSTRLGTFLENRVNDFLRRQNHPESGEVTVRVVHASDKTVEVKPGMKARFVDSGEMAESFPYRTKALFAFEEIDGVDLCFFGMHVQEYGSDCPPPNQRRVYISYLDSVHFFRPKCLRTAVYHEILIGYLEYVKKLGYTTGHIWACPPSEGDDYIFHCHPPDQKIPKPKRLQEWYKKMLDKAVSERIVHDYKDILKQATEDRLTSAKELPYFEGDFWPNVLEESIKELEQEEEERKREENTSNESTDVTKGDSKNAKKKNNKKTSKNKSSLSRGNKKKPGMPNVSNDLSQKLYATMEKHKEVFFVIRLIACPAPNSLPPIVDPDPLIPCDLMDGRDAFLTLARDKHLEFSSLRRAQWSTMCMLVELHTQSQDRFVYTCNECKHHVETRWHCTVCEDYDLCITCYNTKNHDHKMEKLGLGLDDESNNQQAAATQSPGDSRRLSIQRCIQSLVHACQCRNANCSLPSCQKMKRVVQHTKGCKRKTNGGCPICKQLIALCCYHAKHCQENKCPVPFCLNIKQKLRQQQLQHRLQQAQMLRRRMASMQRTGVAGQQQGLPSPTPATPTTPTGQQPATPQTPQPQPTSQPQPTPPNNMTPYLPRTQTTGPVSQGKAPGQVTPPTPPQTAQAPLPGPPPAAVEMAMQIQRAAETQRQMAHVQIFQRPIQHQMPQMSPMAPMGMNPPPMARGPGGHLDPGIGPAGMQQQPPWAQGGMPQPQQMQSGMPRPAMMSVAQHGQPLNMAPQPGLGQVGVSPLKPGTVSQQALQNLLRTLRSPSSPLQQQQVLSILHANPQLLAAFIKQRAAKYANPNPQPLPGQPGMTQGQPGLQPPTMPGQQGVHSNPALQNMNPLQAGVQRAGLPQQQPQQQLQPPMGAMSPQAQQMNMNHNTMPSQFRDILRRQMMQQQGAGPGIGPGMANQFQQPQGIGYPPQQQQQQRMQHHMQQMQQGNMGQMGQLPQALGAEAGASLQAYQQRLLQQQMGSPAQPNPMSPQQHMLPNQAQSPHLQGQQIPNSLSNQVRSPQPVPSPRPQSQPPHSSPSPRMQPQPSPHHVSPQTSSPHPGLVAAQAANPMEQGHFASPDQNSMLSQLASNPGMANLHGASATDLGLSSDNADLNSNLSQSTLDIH
UniProt O55003: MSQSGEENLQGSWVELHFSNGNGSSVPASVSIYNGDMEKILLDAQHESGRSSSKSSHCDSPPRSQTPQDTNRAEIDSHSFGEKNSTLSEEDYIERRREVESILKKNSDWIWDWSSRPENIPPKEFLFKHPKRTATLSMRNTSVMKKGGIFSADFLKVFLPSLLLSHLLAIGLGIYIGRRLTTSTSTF
UniProt Q08369: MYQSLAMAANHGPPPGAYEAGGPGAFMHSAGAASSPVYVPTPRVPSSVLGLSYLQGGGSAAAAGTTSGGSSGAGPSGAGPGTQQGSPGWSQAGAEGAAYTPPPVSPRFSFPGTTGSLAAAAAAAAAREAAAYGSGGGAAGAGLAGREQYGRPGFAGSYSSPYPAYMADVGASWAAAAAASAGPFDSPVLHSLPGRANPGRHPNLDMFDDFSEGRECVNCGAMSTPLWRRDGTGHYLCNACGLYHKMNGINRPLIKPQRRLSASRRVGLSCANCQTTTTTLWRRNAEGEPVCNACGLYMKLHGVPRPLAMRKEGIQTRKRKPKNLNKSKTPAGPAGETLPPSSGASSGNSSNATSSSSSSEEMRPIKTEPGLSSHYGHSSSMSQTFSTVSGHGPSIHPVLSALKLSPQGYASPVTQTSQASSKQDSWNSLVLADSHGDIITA
UniProt Q921J2: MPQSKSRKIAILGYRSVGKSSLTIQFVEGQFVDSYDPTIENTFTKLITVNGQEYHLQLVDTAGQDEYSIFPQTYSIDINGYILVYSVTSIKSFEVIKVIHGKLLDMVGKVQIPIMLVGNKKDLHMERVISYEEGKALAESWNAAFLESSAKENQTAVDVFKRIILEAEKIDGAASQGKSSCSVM

| binding [1] | binding [2] | binding [3] | Substance |
| --- | --- | --- | --- |
| binds | binds |  | GATA4 transcription factor, endogenous in mouse heart (from UniProt Q08369 1-441) |
|  |  | binds | Rheb (Ras homolog enriched in brain), endogenous in mouse heart (from UniProt Q921J2 1-184) |
